Hit rate of the full screen: of about 400,000 compounds, about 5,500 (1.4%) were called active. The shares of active, inactive and inconclusive entries below differ from those in the screen. Calls come from the whole dose curve; as a rule, active = well fitted cell-killing curve with a large enough effect; inconclusive = small, poorly fitted or top-dose-only effect, or effect the other way; inactive = flat fitted curve, though single readings scatter. A potency beside an inconclusive call is a rough fit, not a confirmed value.
assay: qHTS assay for MDR1-selective chemotherapeutics: Primary screen using the parental adenocarcinoma cell KB-3-1; details: KB-3-1 viability, CellTiter-Glo ATP luminescence, 72 h; activity change, negative = cytotoxic: at 46.1 µM (top of the series); note: nearly all actives have a fitted effect of over 60% in size
Procedure, shortened: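 KB-3-1 parental drug-naive adenocarcinoma cells in DMEM/10% FBS, incubated 72 h at 37 C with pin-transferred compounds across a concentration series. Viability by CellTiter-Glo luminescence; concentration-response curves fitted after normalization.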
% is set by controls: 0 for no effect and ±100 for the full control effect; potency is the fitted concentration of half-maximal effect.

Row | SMILES | Potency | activity change, negative = cytotoxic
1 | CCOc1ccc(CN2CCN(Cc3nc4c(s3)CCCC4)CC2CCO)cc1 (stereo not drawn) | inconclusive: 18.4 µM [cytotoxic, single point] | –
2 | CNC(=O)CSc1ncnc2c1cnn2-c1ccccc1 | – | inactive: 6.49%
3 | Cc1cccc(Cn2c(SCc3ccc(C(=O)NC4CCCCC4)cc3)nc3cccnc32)c1 | inconclusive: 29.1 µM [cytotoxic, single point] | –
4 | CCc1nnc(N2C(=O)c3ccccc3C2(O)c2ccccc2)s1 (stereo not drawn) | – | inactive: 2.37%
5 | COc1cc(C(=O)NC(C)C2CC3CCC2C3)cc(OC)c1OC (stereo not drawn) | inconclusive: 2.59 µM [cytotoxic, partial curve] | –
6 | COC(=O)c1[nH]c2cc(OC)ccc2c1NC(=O)CCN1CCN(c2cccc(C)c2C)CC1 | inconclusive: 13 µM [cytotoxic, partial curve] | –
7 | CC1CCC(NC(=O)C2CC(=O)N(c3ccc(Cl)cc3)C2)CC1 (stereo not drawn) | – | inactive: 7.44%
8 | C=CCn1c(SCC(N)=O)nc2scc(-c3ccc(C)o3)c2c1=O | inconclusive: 9.2 µM [cytotoxic, partial curve] | –
9 | CCCCCN(C(=O)CCC(=O)OCc1ccc(Cl)cc1Cl)c1c(N)n(CCCC)c(=O)[nH]c1=O | – | inactive: -1.83%
10 | Nc1c(C(=O)Nc2ccc(F)cc2)sc2nc(-c3ccco3)ccc12 | – | inactive: -14.3%
11 | COc1ccc(/C=N/N2CCN(C3c4ccccc4-c4ccccc43)CC2)cc1O | inconclusive: 32.6 µM [cytotoxic, single point] | –
12 | Cc1ccc(S(=O)(=O)N2CCCC2CNC(=O)C(=O)Nc2ccc(F)cc2F)cc1 (stereo not drawn) | inconclusive: 20.6 µM [cytotoxic, single point] | –
13 | Cc1nnc(SC(C)C(=O)N(C)C2CCCCC2)n1N (stereo not drawn) | inconclusive: 29.1 µM [rising, single point] | –
14 | Clc1ccccc1-c1nnc2sc(-c3ccncc3)nn12 | – | inactive: 8.28%
15 | Cc1ccc2cc(CN(CC3CCCO3)C(=S)Nc3ccccc3)c(=O)[nH]c2c1 (stereo not drawn) | inconclusive: 23.1 µM [cytotoxic, single point] | –
16 | N#CC1=C(N)OC2=C(CC/C2=C\c2ccccc2)C1c1ccccc1 (stereo not drawn) | inconclusive: 18.4 µM [cytotoxic, single point] | –
17 | CCc1c(C)nc(SCCOc2ccc(OC)cc2)[nH]c1=O | – | inactive: -23%
18 | Cc1nc(N2N=C3/C(=C/c4ccc(F)cc4)CCCC3C2c2ccc(F)cc2)sc1C(=O)N(C)C (stereo not drawn) | inconclusive: 2.31 µM [cytotoxic, partial curve, poor fit] | –
19 | Cc1ccc(C2=NC3(CCCCC3)N=C2SCC(=O)Nc2ccc3c(c2)OCCO3)cc1 | – | inactive: -2.68%
20 | CCN(CC)C(=O)Cn1cc(SCC(=O)Nc2ccc(C)cc2)c2ccccc21 | – | inactive: -19.8%
21 | Cc1cc(C)c2c(-n3cccc3)c(C(=O)NNS(=O)(=O)c3ccc(F)cc3)sc2n1 | inconclusive: 25.9 µM [rising, single point] | –
22 | O=C(NC1CCCCC1)C(c1ccc(C(F)(F)F)cc1)n1c(=O)c(-c2cc3ccccc3[nH]2)nc2ccccc21 (stereo not drawn) | inconclusive: 29.1 µM [cytotoxic, single point] | –
23 | NC(=O)c1sc2nc(-c3cccnc3)ccc2c1N | inconclusive: 23.1 µM [cytotoxic, single point] | –

Structural class, those above with a carbonyl joined to an NH by a bond outside any ring
Row | SMILES | Potency | activity change, negative = cytotoxic
2 | CNC(=O)CSc1ncnc2c1cnn2-c1ccccc1 | – | inactive: 6.49%
3 | Cc1cccc(Cn2c(SCc3ccc(C(=O)NC4CCCCC4)cc3)nc3cccnc32)c1 | inconclusive: 29.1 µM [cytotoxic, single point] | –
5 | COc1cc(C(=O)NC(C)C2CC3CCC2C3)cc(OC)c1OC (stereo not drawn) | inconclusive: 2.59 µM [cytotoxic, partial curve] | –
6 | COC(=O)c1[nH]c2cc(OC)ccc2c1NC(=O)CCN1CCN(c2cccc(C)c2C)CC1 | inconclusive: 13 µM [cytotoxic, partial curve] | –
7 | CC1CCC(NC(=O)C2CC(=O)N(c3ccc(Cl)cc3)C2)CC1 (stereo not drawn) | – | inactive: 7.44%
8 | C=CCn1c(SCC(N)=O)nc2scc(-c3ccc(C)o3)c2c1=O | inconclusive: 9.2 µM [cytotoxic, partial curve] | –
10 | Nc1c(C(=O)Nc2ccc(F)cc2)sc2nc(-c3ccco3)ccc12 | – | inactive: -14.3%
12 | Cc1ccc(S(=O)(=O)N2CCCC2CNC(=O)C(=O)Nc2ccc(F)cc2F)cc1 (stereo not drawn) | inconclusive: 20.6 µM [cytotoxic, single point] | –
19 | Cc1ccc(C2=NC3(CCCCC3)N=C2SCC(=O)Nc2ccc3c(c2)OCCO3)cc1 | – | inactive: -2.68%
20 | CCN(CC)C(=O)Cn1cc(SCC(=O)Nc2ccc(C)cc2)c2ccccc21 | – | inactive: -19.8%
21 | Cc1cc(C)c2c(-n3cccc3)c(C(=O)NNS(=O)(=O)c3ccc(F)cc3)sc2n1 | inconclusive: 25.9 µM [rising, single point] | –
22 | O=C(NC1CCCCC1)C(c1ccc(C(F)(F)F)cc1)n1c(=O)c(-c2cc3ccccc3[nH]2)nc2ccccc21 (stereo not drawn) | inconclusive: 29.1 µM [cytotoxic, single point] | –
23 | NC(=O)c1sc2nc(-c3cccnc3)ccc2c1N | inconclusive: 23.1 µM [cytotoxic, single point] | –

Remaining list, next part.

Row | SMILES | Potency | activity change, negative = cytotoxic
24 | O=C(NCc1ccccc1)C1Cc2c(-c3ccc4c(c3)OCO4)ccnc2O1 (stereo not drawn) | active: 0.82 µM | –
25 | O=S(=O)(c1ccc(Cl)cc1)c1cnc2ccccc2n1 | – | inactive: -15.9%
26 | COc1ccc(-c2cc(C)no2)cc1S(=O)(=O)N1CCN(c2ccc([N+](=O)[O-])cc2)CC1 | – | inactive: -28.3%
27 | COC(=O)c1cnc(Nc2nc(C(N)Cc3ccc(Cl)cc3)cs2)nc1C(F)(F)F (stereo not drawn) | inconclusive: 32.6 µM [cytotoxic, partial curve, poor fit] | –
28 | Cc1cn([C@H]2C[C@H](O)[C@@H](CCC(=O)NCC3CCCO3)O2)c(=O)[nH]c1=O (stereo partly drawn) | – | inactive: 0.0518%
29 | O=C(N/N=C/c1ccsc1)c1cc2ccccc2o1 | – | inactive: 0.444%
30 | COc1ccc2nc(NC(=O)Nc3ccccc3OC)sc2c1 | active: 5.17 µM | –
31 | COCc1nnc(NC(=O)c2ccc(S(=O)(=O)N3CCCc4ccccc43)cc2)o1 | inconclusive: 29.1 µM [cytotoxic, single point] | –
32 | CCC(C)OC(=O)c1[nH]c2c(c1C)C(=O)CC(c1ccc(N(C)C)cc1)C2 (stereo not drawn) | inconclusive: 29.1 µM [cytotoxic, single point] | –
33 | CC(C)CN(C1CCS(=O)(=O)C1)S(=O)(=O)c1ccc2ccccc2c1 (stereo not drawn) | inconclusive: 29.1 µM [rising, single point] | –
34 | O=C(/C=C/c1ccc2c(c1)OCO2)Nc1nc(-c2ccccc2)cs1 | active: 7.31 µM | –
35 | CS(=O)(=O)Nc1nnc(SCC(=O)Nc2cccc([N+](=O)[O-])c2)s1 | – | inactive: 16.7%
36 | COC(=O)[C@@]1(Sc2ccc(C)cc2)CC(=O)N(c2cccc(SC)c2)[C@@H]1c1ccccc1 | inconclusive: 25.9 µM [cytotoxic, single point] | –
37 | CCNC(=O)CN(c1ccccc1OC)S(=O)(=O)c1cccs1 | inconclusive: 18.4 µM [rising, partial curve, poor fit] | –
38 | CCOc1cc(NC(=O)CC(C)C)c(OCC)cc1NC(=O)CCn1nnc2ccccc21 | inconclusive: 3.66 µM [rising, partial curve, poor fit] | –
39 | CCN(c1ccccc1)S(=O)(=O)c1ccc(C(=O)Nc2ccccn2)cc1 | inconclusive: 32.6 µM [cytotoxic, single point] | –
40 | Cn1ncc2c(NNC(=O)c3ccccc3Cl)ncnc21 | inconclusive: 20.6 µM [rising, single point] | –
41 | CC[C@]12c3[nH]c4cc(-c5ccco5)ccc4c3CCN1C(=O)[C@@H](CC(=O)NCCC1=CCCCC1)C[C@@H]2C(=O)N1CCN(C(=O)C2CC2)CC1 | inconclusive: 29.1 µM [cytotoxic, single point] | –
42 | CCCOc1ccc(C(=O)CCC(=O)NNC(=O)Cn2nc(C)cc2C)cc1 | inconclusive: 32.6 µM [rising, partial curve, poor fit] | –
43 | COC(=O)c1sccc1S(=O)(=O)Nc1ccc(C)cc1 | – | inactive: 1.2%
44 | O=C(/C=C1\NC2(CCCC2)Cc2ccccc21)C(=O)N/N=C/c1ccccc1O | inconclusive: 29.1 µM [cytotoxic, single point] | –
45 | Cc1ccc(CNC(=O)COC(=O)Cc2ccc(-c3ccccc3)cc2)cc1 | – | inactive: 0.0403%
46 | Cc1ccc(C(=O)N2CCN(Cc3ccc4c(c3)OCO4)CC2)cc1[N+](=O)[O-] | inconclusive: 29.1 µM [cytotoxic, single point] | –

Row | SMILES | Potency | activity change, negative = cytotoxic
47 | Cc1ccc(NS(=O)(=O)c2ccc(NC(=O)c3ccc(Br)o3)cc2)c(C)c1 | active: 20.6 µM | –
48 | Cc1ccc(NC(=O)c2cc(S(=O)(=O)N3CCc4ccccc43)cn2C)cc1C | inconclusive: 13 µM [cytotoxic, partial curve] | –
49 | Cc1c(NC(=O)c2cc(-c3ccc(O)cc3)on2)c(=O)n(-c2ccccc2)n1C | inconclusive: 23.1 µM [cytotoxic, partial curve, poor fit] | –
50 | Cc1cc(C(=O)NNC(=S)NCc2ccco2)n(C)n1 | – | inactive: 0%
51 | Cc1c(C2(O)CCCCC2)[nH]c2ccc(C(F)(F)F)cc12 | inconclusive: 16.4 µM [cytotoxic, partial curve] | –
52 | N#CC1=C(N)OC2=C(CCc3ccccc32)C1c1ccccc1Cl (stereo not drawn) | inconclusive: 4.61 µM [cytotoxic, full curve, poor fit] | –
53 | COC(=O)c1ccc2c(c1O)C(=O)c1ccccc1C2=O | inconclusive: 29.1 µM [cytotoxic, single point] | –
54 | Cc1cc(OCC(=O)N(C)Cc2ccccc2)ccc1Cl | – | inconclusive: -26.1%
55 | COc1ccc(NC(=O)/C(C#N)=C/c2ccc(Sc3nncn3C)c([N+](=O)[O-])c2)cc1 | inconclusive: 29.1 µM [cytotoxic, single point] | –
56 | CCCOc1nc2c(c(=O)n(C)c(=O)n2C)n1Cc1cccc2ccccc12 | – | inactive: -11.5%
57 | COc1ccc(-c2[nH]ncc2N=Nc2ccccc2)cc1 | inconclusive: 23.1 µM [cytotoxic, single point] | –
58 | COCCN1C(=O)N(c2ccc(Cl)cc2)C(=O)C1CC(=O)Nc1cc(OC)cc(OC)c1 (stereo not drawn) | – | inconclusive: -0.564%
59 | O=C(O)c1cnnc2ccccc12 | inconclusive: 29.1 µM [rising, single point] | –
60 | Cc1ccccc1CN1CCC(Oc2ccc(C(=O)N3CCCC3)cc2)CC1 | – | inactive: -11.7%
61 | COC(=O)[C@@]12C[C@@H](CC(=O)NCC3CCCCC3)C(=O)N(Cc3ccco3)C1=CCC(C)(C)C2 | – | inactive: -21.2%
62 | CCCN1CCN(CCCNC(=O)Cn2c(-c3cccs3)cc3ccccc32)CC1 | inconclusive: 13 µM [rising, partial curve, poor fit] | –
63 | O=C(N/N=C\c1ccc(Cl)cc1)C1=NOC2COC3(CCN(c4ccc([N+](=O)[O-])cc4)CC3)OCC12 (stereo not drawn) | inconclusive: 29.1 µM [cytotoxic, single point] | –
64 | Cn1nc(-c2ccccc2F)c2cc(C(=O)N3CCN(c4ccc(F)cc4)CC3)sc21 | inconclusive: 18.4 µM [cytotoxic, partial curve, poor fit] | –
65 | CCn1cc(S(=O)(=O)c2ccc(C)cc2)c(=O)c2cc(F)c(N3CCCCCC3)cc21 | – | inactive: 3.58%
66 | CCN(CC)C(=O)Cn1cc(C(=O)C(=O)N2CCN(Cc3ccccc3)CC2)c2ccccc21 | inconclusive: 29.1 µM [cytotoxic, single point] | –
67 | CCOC(=O)COc1ccc2c(=O)c(-c3ccc(OC)c(OC)c3)c(C(=O)OCC)oc2c1 | inconclusive: 18.4 µM [cytotoxic, partial curve, poor fit] | –
68 | O=C(N/N=C/c1cccc2cccnc12)c1ccccc1O | inconclusive: 29.1 µM [cytotoxic, single point] | –

Quoted at random: 2 compounds from above.
Row | SMILES | Potency | activity change, negative = cytotoxic
59 | O=C(O)c1cnnc2ccccc12 | inconclusive: 29.1 µM [rising, single point] | –
62 | CCCN1CCN(CCCNC(=O)Cn2c(-c3cccs3)cc3ccccc32)CC1 | inconclusive: 13 µM [rising, partial curve, poor fit] | –
